Experimental data: PubChem BioAssay AID1259308 (NCATS, 2017)
This is a random part of about 59,000 deposited reagents. About 1,510 of them (2.6%) were called active. 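Calls use total luciferase alone and ignore viability, so some active siRNAs may act by altering cell number.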 Entries without a mark were called inactive. Reagents against one gene are numbered here. Not all columns of the deposit are shown.

- Test: 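Knock-downs that increase output of a recombinant reporter protein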 (primary screen)
- Cells: human HEK293 embryonic kidney cells stably expressing firefly luciferase (HEK-CMV-Luc2-Hygro)
- Knock-down reagent: single siRNA against human genes, 0.8 pmol siRNA per well
- Time to read-out: 72 h
- Read-out: 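Luciferase light (ONE-Glo) measured on one replicate plate set and viability (CellTiter-Glo) on the other, scaled to a negative control siRNA, with robust z-scores and luciferase per cell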
- Reading the numbers: total luciferase, z-score and total luciferase, % of control: higher = more reporter protein produced
- Call rule: 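Active when the median/MAD z-score for overall luciferase is greater than 3; a gene was taken forward for validation with new siRNAs if at least two of its three siRNAs passed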
- Meaning of the calls: active = raised luciferase; inactive = no rise

How did the screen score EIF2D (eukaryotic translation initiation factor 2D) #1?
total luciferase, z-score: 0.589; total luciferase, % of control: 93.6

For EIF2D (eukaryotic translation initiation factor 2D) #2, what was measured?
total luciferase, z-score: 1.36; total luciferase, % of control: 109

For EIF2D (eukaryotic translation initiation factor 2D) #3, how do the results read?
total luciferase, z-score: 0.315; total luciferase, % of control: 88.2

With CLEC17A (C-type lectin domain containing 17A) #1, how do the results read?
total luciferase, z-score: 0.282; total luciferase, % of control: 87.5

For CLEC17A (C-type lectin domain containing 17A) #2, what was measured?
total luciferase, z-score: 0.15; total luciferase, % of control: 84.9

What is on record for CLEC17A (C-type lectin domain containing 17A) #3?
total luciferase, z-score: 1.19; total luciferase, % of control: 106

What is on record for MYDGF (myeloid derived growth factor) #1?
total luciferase, z-score: 2.31; total luciferase, % of control: 128

For MYDGF (myeloid derived growth factor) #2, what was measured?
total luciferase, z-score: 2.28; total luciferase, % of control: 127

Which result is listed for MYDGF (myeloid derived growth factor) #3?
total luciferase, z-score: -0.632; total luciferase, % of control: 69.3

How did the screen score LIN7A (lin-7 cell polarity scaffold A) #1?
total luciferase, z-score: -1.87; total luciferase, % of control: 44.7

With LIN7A (lin-7 cell polarity scaffold A) #2, what does the deposit list?
total luciferase, z-score: -0.659; total luciferase, % of control: 68.8

For LIN7A (lin-7 cell polarity scaffold A) #3, what was measured?
total luciferase, z-score: -0.136; total luciferase, % of control: 79.2
